# According to the supplement of paper PMC8426693:
# The other results are listed elsewhere or left out. Most values come without repeats; read them as rough.
# System: SARS-CoV-2 3'-UTR RNA
# Test: waterLOGSY factor (bound vs free ligand) (ratio); higher = stronger binding
# Settings: RNA concentration 10 µM; fragment concentration 200 µM; 293 K
row,Structure (SMILES),waterLOGSY factor
1,c1nc(N2CCC2)c2[nH]cnc2n1,1.53
2,O=C(OCc1ccc(Cl)cc1)c1cccnc1,1.19
3,CC(C)NC(=O)c1ccc2ccccc2n1,0.586
4,CC(=O)Nc1ccncc1C,1.48
5,CCOC(=O)c1cc(-c2ccc(C)cc2)no1,2.3
6,CC(N)c1ccc(-c2cncnc2)cc1 (stereo not drawn),1.25
7,CCc1nc(-c2ccc(Cl)cc2)no1,1.72
8,Oc1ccc(CN2CCCC2)c2cccnc12,1.35
9,O=C(Nc1ccc(O)cc1)c1ccc(Cl)cc1,3.2
10,OCc1ccc(-n2cnc3ccccc32)cc1,1.35
11,O=C(Nc1ccc2[nH]c(=O)[nH]c2c1)c1ccco1,2.02
12,COc1ccc(C(=O)Nc2ccccc2F)cc1,1.06
13,CC(=O)Nc1ccc2[nH]c(=O)[nH]c2c1,2.69
14,c1ccc(CCNc2nc3ccccc3[nH]2)cc1,2.21
15,CNc1nccc(OC)n1,1.81
16,Cc1cc2ncn(CC(N)=O)c2cc1C,1.61
17,NC(=O)c1ccnc(NC2CC=CC2)c1,1.26
18,COc1ccc(NC(=O)Nc2cccs2)cn1,1.41
19,Cc1ccc(Nc2ncnc3[nH]ncc23)cc1,4.03
20,c1cnc(N2CCC3(CCOC3)C2)cn1 (stereo not drawn),1.27
21,CNCC(=O)Nc1cc(C)ccn1,1.8
22,CNC(=O)c1nc2ccccc2c(=O)[nH]1,0.51
23,Cc1cc(C(=O)Nc2ccc3[nH]ccc3c2)no1,1.6

# 2 compounds drawn at random from those above:
row,Structure (SMILES),waterLOGSY factor
14,c1ccc(CCNc2nc3ccccc3[nH]2)cc1,2.21
11,O=C(Nc1ccc2[nH]c(=O)[nH]c2c1)c1ccco1,2.02
